Experimental data as given in ChEMBL document CHEMBL2046424, “Synthesis and anti Methicillin resistant Staphylococcus aureus activity of substituted chalcones alone and in combination with non-beta-lactam antibiotics” (2012).

How the values were obtained:
Staphylococcus aureus [1] = test: Antibacterial activity against methicillin-resistant Staphylococcus aureus ATCC 43300 at 10 ug/ml after 24 hrs by disc diffusion method; type: functional, organism-based
Staphylococcus aureus [2] = test: Antibacterial activity against methicillin-sensitive Staphylococcus aureus ATCC 25923 at 10 ug/ml after 24 hrs by disc diffusion method; type: functional, organism-based

GENTAMICIN
inhibition zone (IZ) (Staphylococcus aureus [1]): 23 mm
inhibition zone (IZ) (Staphylococcus aureus [2]): 27 mm
